In all, about 320,000 compounds went through this assay and about 22,000 (6.9%) were called active. The inconclusive results got no clear call from the source; some entries with a clear call stand among them for comparison. Calls follow the shape of the dose curve; as a rule, active = well fitted inhibition curve with a large enough effect; inconclusive = small, poorly fitted or top-dose-only effect, or another doubt; inactive = no such curve, though single readings can be large or run the other way. A potency beside an inconclusive call is a rough fit, not a confirmed value.
assay: Primary qHTS for delayed death inhibitors of the malarial parasite plastid, 96 hour incubation; details: P. falciparum luciferase reporter growth; series mostly up to 28.7 µM
In short: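 Readout is luminescence from an integrated firefly luciferase in P. falciparum. Red cells, 2% hematocrit and 0.05% parasitemia final, were cultured with compound through two parasite generations (96 hours) at 37 C, 5% CO2.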
% is scaled to controls: 0 for no effect and ±100 for the full control effect; potency is read from the fitted curve at half-maximal effect.

| SMILES | Potency | activity change, negative = inhibition |
| --- | --- | --- |
| COc1cccc(NC(=O)CN(C)C(=O)c2c(C)nn(-c3ccccc3)c2Cl)c1 | inconclusive: 2.62 µM [inhibitor, partial curve, poor fit] |  |
| COC(=O)CN1C(=O)C2(OCCCO2)c2ccccc21 | inconclusive: 7.38 µM [inhibitor, partial curve, poor fit] |  |
| CN(C)S(=O)(=O)c1cccc(NC(=O)CCNC(=O)c2ccccc2Cl)c1 | inactive |  |
| Cc1cccc(NC(=O)c2cccc(NC(=O)Cc3cccs3)c2)c1 | inconclusive: 1.04 µM [inhibitor, partial curve, poor fit] |  |
| Cc1cc(C)cc(NC(=O)c2ccc(NC(=O)C3C4CC5OC(=O)C3C5C4)cc2)c1 (centres undefined) | inconclusive: 8.28 µM [inhibitor, partial curve, poor fit] |  |
| CCOc1cccc(=NC2CCCCC2)c2c(C)n(C)c(C)c12 | inconclusive: 2.33 µM [inhibitor, full curve] |  |
| CCOC(=O)Cn1c(=O)oc2cc(S(=O)(=O)N3CCN(c4ccccn4)CC3)ccc21 | inconclusive: 10.4 µM [inhibitor, single point] |  |
| Cc1ccc(CS(=O)Cc2ccc(C(=O)NC3CCCC(C)C3C)o2)cc1 (centres undefined) | inactive |  |
| CN(Cc1ccc(C(C)(C)C)cc1)C(=O)c1ccc2c(=O)n3c(nc2c1)CCC3 | inconclusive: 5.86 µM [inhibitor, partial curve, poor fit] |  |
| CCOc1ccc(/C=C/C(=O)NCCc2ccc(OC)c(OC)c2)cc1 | inconclusive: 11.7 µM [inhibitor, single point] |  |
| CCOC(=O)c1[nH]c2ccc(OC)cc2c1NC(=O)c1cccc(OC)c1 | inconclusive: 18.5 µM [inhibitor, single point] |  |
| COc1ccc(C(=O)C[n+]2cccc3cc(OC)ccc32)cc1 | inconclusive: 2.33 µM [inhibitor, full curve] |  |
| CCOc1ccc(N2C(=O)CC(Sc3nccc(C)n3)C2=O)cc1 (centres undefined) | inconclusive: 1.04 µM [inhibitor, full curve] |  |
| Cc1ccc(CC2CC(=O)N(CC(=O)O)C2=O)cc1 (centres undefined) | inconclusive: 18.5 µM [inhibitor, single point] |  |
| Cn1cc(-c2ccccc2C(N)=O)c(=O)c2ccccc21 | inactive |  |
| N#Cc1ccc[n+](CC(=O)c2ccc(Cl)cc2)c1 | active: 7.38 µM |  |
| CC(=O)c1ccc(NC(=O)CCn2c(=O)oc3ccccc32)cc1 | inconclusive: 13.1 µM [inhibitor, partial curve, poor fit] |  |
| NC(=O)NC(=O)C[n+]1cccc(/C=N/O)c1 | active: 10.4 µM |  |
| COc1ccccc1N1CCN(C(=O)c2ccc(Cn3c(=O)[nH]c4ccsc4c3=O)cc2)CC1 | inconclusive: 13.1 µM [inhibitor, single point] |  |
| CCN(CC)CCNc1ccc2nnc(CCNS(=O)(=O)c3ccc(C)cc3)n2n1 | inconclusive: 18.5 µM [inhibitor, single point] |  |
| O=C(O)CSc1nnc(COc2ccc(Br)cc2)n1-c1ccccc1 | inconclusive: 11.7 µM [inhibitor, single point] |  |
| COc1cccc(OC)c1C(=O)Nc1ccc([N+](=O)[O-])cn1 | inconclusive: 14.7 µM [inhibitor, partial curve, poor fit] |  |
| Cc1c(C(=O)N2CCN(C(=O)c3ccco3)CC2)sc2nc(-c3ccc(F)cc3)cn12 | inconclusive: 18.5 µM [inhibitor, single point] |  |

| SMILES | Potency | activity change, negative = inhibition |
| --- | --- | --- |
| Cc1ccc(OCC(=O)N2CCC(N3CC(C)CC(C)C3)CC2)cc1 (centres undefined) | inconclusive: 11.7 µM [inhibitor, partial curve, poor fit] |  |
| COC(=O)C1=C(CS(=O)(=O)c2cc(Cl)ccc2OC)NC(=O)NC1c1ccc(O)c(OC)c1 (centres undefined) | inconclusive: 18.5 µM [inhibitor, single point] |  |
| Cc1ccccc1Oc1ncnc2oc(-c3ccccc3)cc12 | inconclusive: 0.0041 µM [inhibitor, full curve] |  |
| CCCc1cc(=O)oc2cc(OCC(=O)Nc3cc(C)on3)ccc12 | inconclusive: 10.4 µM [inhibitor, single point] |  |
| CCCCOc1ccc(-c2ncc(N)cn2)cc1 | inactive |  |
| CCOC(=O)C/C(C)=N/NC(=O)CNc1cccc(Cl)c1C | inactive |  |
| O=C(O)CC(CNS(=O)(=O)c1cccc2nsnc12)c1ccccc1 (centres undefined) | inactive |  |
| Cc1ccc(CNC(=O)C2CCN(S(=O)(=O)N3CC(C)CC(C)C3)CC2)cc1 (centres undefined) | inconclusive: 18.5 µM [inhibitor, single point] |  |
| O=C(O)c1cc(C2CC2)nc2ccccc12 | inactive |  |
| O=C(Nc1cccc(-c2nnc(-c3ccco3)o2)c1)C(c1ccccc1)c1ccccc1 | active: 5.22 µM |  |
| Cc1ccc(N(CC(=O)NC2CCCC2)C(=O)CCC(=O)Nc2ccccn2)cc1C | inactive |  |
| O=C(Nc1ccc(N2CCN(C(=O)c3ccco3)CC2)cc1)c1ccc([N+](=O)[O-])cc1Cl | inconclusive: 18.5 µM [inhibitor, single point] |  |
| Cc1c(C(=O)N2CCc3ccccc3C2)oc2ccc(S(=O)(=O)N3CCCCCC3)cc12 | inconclusive: 13.1 µM [inhibitor, single point] |  |
| CCCc1nn2c(=O)cc(CSCC(=O)Nc3ccccc3OC)nc2s1 | inactive |  |
| Cc1cc(C(=O)NC(Cc2c[nH]c3ccccc23)C(=O)O)c(C)o1 (centres undefined) | inconclusive: 18.5 µM [inhibitor, single point] |  |
| CCn1c(SCC#N)nc2cc(S(=O)(=O)N3CCOCC3)ccc21 | inconclusive: 18.5 µM [inhibitor, single point] |  |
| Cc1cc(C)c2c(-n3cccc3)c(NC(=O)OCc3ccccc3)sc2n1 | active: 13.1 µM |  |
| O=S(=O)(Nc1cccc(Cl)c1)c1ccc(-n2cccn2)cc1 | inconclusive: 13.1 µM [inhibitor, single point] |  |
| CCOCCCNC(=O)c1cc2cc3cc(OC)ccc3nc2o1 | inactive |  |
| O=C(O)C1CCCCC1C(=O)NCCc1c[nH]c2ccccc12 (centres undefined) | inconclusive: 0.329 µM [inhibitor, partial curve, poor fit] |  |
| S=C(Nc1ccc(Cl)cc1)NC1CCN(Cc2ccccc2)CC1 | active: 6.57 µM |  |
| O=c1cc(O)n(-c2ccc(F)cc2)c(=S)[nH]1 | inconclusive: 10.4 µM [inhibitor, single point] |  |
| CCOc1nc(-c2ccc(OC)cc2)ccc1-c1noc(-c2ccncc2)n1 | inconclusive: 10.4 µM [inhibitor, single point] |  |

| SMILES | Potency | activity change, negative = inhibition |
| --- | --- | --- |
| Cc1ccc(N2C(=O)SC(N(CC(=O)O)c3cccc(C)c3)C2=O)cc1 (centres undefined) | inactive |  |
| COc1ccc(-n2c(=S)[nH]c3cc(C(=O)NCc4ccco4)ccc3c2=O)cc1OC | inconclusive: 2.08 µM [inhibitor, partial curve] |  |
| C/C(=N\NC(=O)c1ccc(O)cc1)c1ccc2c(c1)OCCO2 | inconclusive: 16.5 µM [inhibitor, partial curve, poor fit] |  |
| COc1cccc(NC(=O)C(=O)c2cn(CC(=O)N3CCOCC3)c3ccccc23)c1 | inconclusive: 18.5 µM [inhibitor, single point] |  |
| CCC(=O)c1ccc(OCC(O)Cn2cnc3ccccc32)cc1 (centres undefined) | active: 1.85 µM |  |
| CN(CC(=O)Nc1ccc(F)cc1)CC(=O)N1CCCCCC1 | inconclusive: 11.7 µM [inhibitor, single point] |  |
| CC(=O)Nc1ccc(S(=O)(=O)NCC2CCC(C(=O)NCCCN3CCCC3=O)CC2)cc1 (centres undefined) | inconclusive: 10.4 µM [inhibitor, single point] |  |
| Cc1ccc(C(=O)CN2C(=O)NC3(CCCCC3C)C2=O)s1 (centres undefined) | inconclusive: 4.65 µM [inhibitor, partial curve, poor fit] |  |
| O=C(OCC(=O)N1CCc2ccccc21)C1=COCCO1 | inconclusive: 18.5 µM [inhibitor, single point] |  |
| CCS(=O)(=O)n1nc(-c2ccccc2)nc1N | inactive |  |
| CCc1nnc(NC(=O)CSc2nnc(-c3cccnc3)n2CCc2ccccc2)s1 | inconclusive: 13.1 µM [inhibitor, partial curve, poor fit] |  |
| CCOc1ccccc1C(=O)NCC(=O)N(C)Cc1cccnc1 | inactive |  |
| CC(=O)Nc1cccc(C(=O)N/N=C/c2ccc(F)cc2)c1 | inconclusive: 18.5 µM [inhibitor, single point] |  |
| C=CCN1C(=O)SC(Cc2cccc(OC)c2O)C1=O (centres undefined) |  | inactive: 51.6% [at 5.75 µM] |
| CC(C)Sc1n[nH]c(=O)n1-c1ccccc1 | inactive |  |
| O=C(Nc1ccc2nc(-c3cccnc3)[nH]c2c1)c1ccco1 | inconclusive: 9.28 µM [inhibitor, single point] |  |
| COc1ccc(NC(=O)Nc2ccc(Cc3ccncc3)cc2)cc1OC | active: 5.22 µM |  |
| C[C@@H](C(=O)OCn1nnc2ccccc2c1=O)N1C(=O)C2CCCCC2C1=O (some centres undefined) | inactive |  |
| COc1ccc(-c2cc(C(=O)N3CC4(C)CC3CC(C)(C)C4)no2)cc1 (centres undefined) | inconclusive: 4.65 µM [inhibitor, partial curve] |  |
| CCOC(=O)c1ccc(-n2c(-c3ccco3)nc3ccccc3c2=O)cc1 | inconclusive: 18.5 µM [inhibitor, single point] |  |
| C=CCC1(N(C(C)=O)c2ccccc2C)CCCCC1 | inconclusive: 18.5 µM [inhibitor, single point] |  |
| CCOC(=O)N1CCC(NC(=O)Cn2nc(-c3ccccc3)ccc2=O)CC1 | active: 9.28 µM |  |
| CC(C)OC(=O)c1c(-c2ccc(C(C)C)cc2)csc1NC(=O)C1CCCO1 (centres undefined) | inconclusive: 18.5 µM [inhibitor, single point] |  |

19 neighbouring compounds from above, for reference:

| SMILES | Potency | activity change, negative = inhibition |
| --- | --- | --- |
| O=C(O)C1CCCCC1C(=O)NCCc1c[nH]c2ccccc12 (centres undefined) | inconclusive: 0.329 µM [inhibitor, partial curve, poor fit] |  |
| S=C(Nc1ccc(Cl)cc1)NC1CCN(Cc2ccccc2)CC1 | active: 6.57 µM |  |
| O=c1cc(O)n(-c2ccc(F)cc2)c(=S)[nH]1 | inconclusive: 10.4 µM [inhibitor, single point] |  |
| CCOc1nc(-c2ccc(OC)cc2)ccc1-c1noc(-c2ccncc2)n1 | inconclusive: 10.4 µM [inhibitor, single point] |  |
| Cc1ccc(N2C(=O)SC(N(CC(=O)O)c3cccc(C)c3)C2=O)cc1 (centres undefined) | inactive |  |
| COc1ccc(-n2c(=S)[nH]c3cc(C(=O)NCc4ccco4)ccc3c2=O)cc1OC | inconclusive: 2.08 µM [inhibitor, partial curve] |  |
| C/C(=N\NC(=O)c1ccc(O)cc1)c1ccc2c(c1)OCCO2 | inconclusive: 16.5 µM [inhibitor, partial curve, poor fit] |  |
| COc1cccc(NC(=O)C(=O)c2cn(CC(=O)N3CCOCC3)c3ccccc23)c1 | inconclusive: 18.5 µM [inhibitor, single point] |  |
| CCC(=O)c1ccc(OCC(O)Cn2cnc3ccccc32)cc1 (centres undefined) | active: 1.85 µM |  |
| CN(CC(=O)Nc1ccc(F)cc1)CC(=O)N1CCCCCC1 | inconclusive: 11.7 µM [inhibitor, single point] |  |
| CC(=O)Nc1ccc(S(=O)(=O)NCC2CCC(C(=O)NCCCN3CCCC3=O)CC2)cc1 (centres undefined) | inconclusive: 10.4 µM [inhibitor, single point] |  |
| Cc1ccc(C(=O)CN2C(=O)NC3(CCCCC3C)C2=O)s1 (centres undefined) | inconclusive: 4.65 µM [inhibitor, partial curve, poor fit] |  |
| O=C(OCC(=O)N1CCc2ccccc21)C1=COCCO1 | inconclusive: 18.5 µM [inhibitor, single point] |  |
| CCS(=O)(=O)n1nc(-c2ccccc2)nc1N | inactive |  |
| CCc1nnc(NC(=O)CSc2nnc(-c3cccnc3)n2CCc2ccccc2)s1 | inconclusive: 13.1 µM [inhibitor, partial curve, poor fit] |  |
| CCOc1ccccc1C(=O)NCC(=O)N(C)Cc1cccnc1 | inactive |  |
| CC(=O)Nc1cccc(C(=O)N/N=C/c2ccc(F)cc2)c1 | inconclusive: 18.5 µM [inhibitor, single point] |  |
| C=CCN1C(=O)SC(Cc2cccc(OC)c2O)C1=O (centres undefined) |  | inactive: 51.6% [at 5.75 µM] |
| CC(C)Sc1n[nH]c(=O)n1-c1ccccc1 | inactive |  |

From PubChem BioAssay AID504834 (National Center for Advancing Translational Sciences (NCATS), 2011)
